In patent US8530680B2, “System and method for controlling growth of microorganisms with brominated furanones” (Syracuse University, priority 2008, dated 2013):

Test system: C. albicans strain SC5341 gene expression
Experiment: DNA microarray gene expression of C. albicans after BF1 treatment
Format: cell-based, Candida albicans
Details: 3 μg/mL BF1, 45 minutes
Protocol: An overnight culture of C. albicans strain SC5341 grown in SD medium was sub-cultured in 25 mL of the same medium to an initial OD600 of 0.005 and grown till the OD600 was 1.0. The culture was diluted using fresh SD medium to a volume of 100 mL with an initial OD600 of 0.6, and it was grown till the OD600 reached 1.0, which took approximately 2 hours. Then the culture was split into two equal portions, with 3 μg/mL of BF1 added to the first one and the same amount of ethanol added to the second one to eliminate the effects of ethanol. […] Forty-five minutes after BF1 addition, the cells were harvested by centrifugation at 13,200 rpm at 4° C. for 30 sec and stored at −80° C. until RNA isolation. To lyse the cells, 1.5 mL of Trizol reagent (Invitrogen® Co., Carlsbad, Calif.) and 0.5 mL of 0.5 mm glass beads were added to the frozen tubes containing C. albicans cell pellets. […] The extracted RNA was further cleaned up using an RNeasy mini-kit (QIAGEN® Inc., Valencia, Calif.), including on-column DNA digestion with RNase-free DNase I. The RNA yield was quantified by OD260 reading, and the RNA integrity was checked, using agarose gel electrophoresis. […] The data were analyzed using Genespring GX version 7.3 (Agilent Technologies®, Santa Clara Calif.). […]

## CCCCC1=C(Br)/C(=C/Br)OC1=O [BF1, 4-bromo-5Z-(bromomethylene)-3-butylfuran-2-one]
  number of genes repressed by at least 1.5-fold: 21
  total number of genes significantly modulated (P≦0.05): 54
